Data: PubChem BioAssay AID1671190 (National Center for Advancing Translational Sciences (NCATS), 2021)
Where “and” joins values, the source holds several entries; their conditions need not be identical. Equal entries are not always repeated. Out of some 580,000 compounds screened, about 6,100 (1.1%) were called active. The inconclusive results got no clear call from the source; some entries with a clear call stand among them for comparison. Calls come from the whole dose curve; as a rule, active = well fitted inhibition curve with a large enough effect; inconclusive = small, poorly fitted or top-dose-only effect, or another doubt; inactive = no such curve, though single readings can be large or run the other way. Where the call is inconclusive, the potency comes from a doubtful curve fit.

Sequences of proteins named here, by UniProt entry; tags and fusion partners are left off. A change or cut given only in a name is not applied to a line headed by its entry.
UniProt P18054: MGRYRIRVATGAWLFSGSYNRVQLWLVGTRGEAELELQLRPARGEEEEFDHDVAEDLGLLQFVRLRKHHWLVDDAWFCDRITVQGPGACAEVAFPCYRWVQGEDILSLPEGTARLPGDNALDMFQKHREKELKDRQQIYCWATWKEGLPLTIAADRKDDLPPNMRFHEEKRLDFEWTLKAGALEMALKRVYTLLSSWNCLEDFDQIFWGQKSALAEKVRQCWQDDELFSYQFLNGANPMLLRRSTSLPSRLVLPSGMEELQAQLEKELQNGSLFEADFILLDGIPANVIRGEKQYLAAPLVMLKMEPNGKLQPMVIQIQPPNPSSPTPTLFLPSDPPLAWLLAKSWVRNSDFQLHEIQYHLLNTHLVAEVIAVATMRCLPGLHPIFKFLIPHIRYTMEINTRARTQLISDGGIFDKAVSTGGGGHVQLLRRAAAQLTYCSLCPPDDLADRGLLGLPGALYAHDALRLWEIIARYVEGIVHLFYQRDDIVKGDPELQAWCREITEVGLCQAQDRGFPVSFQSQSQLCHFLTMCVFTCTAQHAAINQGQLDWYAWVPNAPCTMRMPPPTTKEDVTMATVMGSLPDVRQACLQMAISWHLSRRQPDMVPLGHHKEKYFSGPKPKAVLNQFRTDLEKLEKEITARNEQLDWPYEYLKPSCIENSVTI

Target: Polyunsaturated fatty acid lipoxygenase ALOX12 (Homo sapiens) (UniProt P18054)
Assay: Primary qHTS assay for inhibitors of human arachidonate 12S-lipoxygenase (ALOX12): Round 2
Conditions: purified 12hLO, xylenol orange hydroperoxide absorbance; activity change, negative = inhibition: at 108 µM (top of the series) unless noted
Summary of the method: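 Purified human 12hLO (150 nM final) in 25 mM Hepes, 0.01% Triton X-100, pH 7.0 was preincubated 15 min at room temperature with compound. Then 40 uM arachidonic acid was added, 30 min. Hydroperoxide was read by Fe-XO absorbance ratio 573/405 nm.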
% is set by controls: 0 for no effect and ±100 for the full control effect; potency is the fitted concentration of half-maximal effect.

| SMILES | Potency | activity change, negative = inhibition |
| --- | --- | --- |
| Cc1cc(N2CCOCC2)nc2ccc(NC(=S)NCCC(C)C)cc12 | inconclusive: 39.8 µM [inhibitor, partial curve, poor fit] | – |
| Cc1ccc(CN2CCC2(C)C(=O)NC2CCc3ccccc32)cc1 (stereo not given) | inconclusive: 112 µM [inhibitor, single point] | – |
| CCOC(=O)c1ccc(N=Cc2nc(-c3ccccc3)oc2OC(C)=O)cc1 | inconclusive: 50.1 µM [inhibitor, partial curve, poor fit] | – |
| C=C(Cl)CN1CCC(C(=O)OCC)CC1 | inconclusive: 39.8 µM [inhibitor, single point] | – |
| COc1ccc(-c2cc(C(=O)NC3CC3)c3ccccc3n2)c(OC)c1 | inconclusive: 22.4 µM [inhibitor, single point] | – |
| C[C@@H]1CN(Cc2nnnn2CC(=O)NCCCn2cccn2)C[C@H](C)O1 | inconclusive: 2 µM [inhibitor, full curve, poor fit] | – |
| COc1ccc(OC)c(N/C=C/C(=O)c2ccccc2)c1 | – | inactive: 17.3% |
| COc1cccc(CN(C)C(=O)c2ccc(S(=O)(=O)Nc3cccc(C)c3C)cc2)c1OC | inconclusive: 70.8 µM [inhibitor, partial curve, poor fit] | – |
| CCCCCCN(C(=O)CCCN1C(=O)NC(c2ccc(-c3ccccc3)cc2)C(C(=O)OCc2ccccc2)=C1C)C(C)C(=O)NCCCC (stereo not given) | inconclusive: 7.08 µM [inhibitor, full curve, poor fit] | – |
| N#C/C(=C/c1cccc(F)c1)S(=O)(=O)c1ccc(Cl)cc1 | inconclusive: 44.7 µM [inhibitor, partial curve, poor fit] | – |
| CC1C(=O)CCN(C2CC2)C1C (stereo not given) | inconclusive: 39.8 µM [inhibitor, partial curve, poor fit] | – |
| Cc1cccc(NC(=O)NC(=S)NC(=O)c2ccccc2)c1 | inconclusive: 44.7 µM [inhibitor, partial curve, poor fit] | – |
| CNS(=O)(=O)c1cc(NC(=O)c2cccc3cccnc23)ccc1C | inconclusive: 100 µM [inhibitor, partial curve, poor fit] | – |
| O=C(COc1ccccc1)N[C@@H]1c2ccccc2CC[C@H]1OCc1ccccc1 | inconclusive: 50.1 µM [inhibitor, partial curve, poor fit] | – |
| CCN(CC)C(=O)COc1ccc(-c2nnc(Nc3ccc(OC)c(C(=O)NC)c3)c3ccccc23)cc1 | inconclusive: 89.1 µM [inhibitor, single point] | – |
| COC(=O)C1CCN(C(=O)COC(=O)C2CCN(S(=O)(=O)c3ccc4c(c3)OCCO4)CC2)CC1 | inconclusive: 35.5 µM [inhibitor, single point] | – |
| CCOC(=O)N1CCC(N2CCCC(CCC(=O)Nc3ccc(OC)c(Cl)c3)C2)CC1 (stereo not given) | inconclusive: 8.91 µM [inhibitor, full curve] | – |
| CCC(CCc1ccccn1)C(=O)c1ccccc1 (stereo not given) | inconclusive: 22.4 µM [inhibitor, full curve, poor fit] | – |
| NC(=S)Cc1nc(-c2ccccc2)cs1 | inconclusive: 50.1 µM [inhibitor, partial curve, poor fit] | – |
| CCc1c(C(C)S(=O)(=O)c2ccccc2)[nH]c(=O)n1CC (stereo not given) | inconclusive: 50.1 µM [inhibitor, partial curve, poor fit] | – |
| O=c1cc(-c2ccc([N+](=O)[O-])cc2)nc2cc(-c3ccc(F)cc3)[nH]n12 | active: 20 µM | – |
| CCOc1ccc(C(=O)Nc2ccc3oc(-c4ccncc4)nc3c2)cc1 | inconclusive: 44.7 µM [inhibitor, single point] and inconclusive: 20 µM [inhibitor, full curve, poor fit] | – |

Already shown: entries from further up.

| SMILES | Potency | activity change, negative = inhibition |
| --- | --- | --- |
| CCN(CC)C(=O)COc1ccc(-c2nnc(Nc3ccc(OC)c(C(=O)NC)c3)c3ccccc23)cc1 | inconclusive: 89.1 µM [inhibitor, single point] | – |
| COC(=O)C1CCN(C(=O)COC(=O)C2CCN(S(=O)(=O)c3ccc4c(c3)OCCO4)CC2)CC1 | inconclusive: 35.5 µM [inhibitor, single point] | – |
| CCOC(=O)N1CCC(N2CCCC(CCC(=O)Nc3ccc(OC)c(Cl)c3)C2)CC1 (stereo not given) | inconclusive: 8.91 µM [inhibitor, full curve] | – |

The list continues.

| SMILES | Potency | activity change, negative = inhibition |
| --- | --- | --- |
| CCCC1NC(=O)N(Cc2ncc(-c3ccc(Cl)cc3)o2)C1=O (stereo not given) | inconclusive: 63.1 µM [inhibitor, partial curve, poor fit] | – |
| Cc1ccc(Nc2nc(C)c(NC(=O)c3ccc(C)cc3)c(Nc3ccc(C)cc3)n2)cc1 | inconclusive: 126 µM [inhibitor, single point] | – |
| O=C(CC1C(=O)NCCN1CC(c1ccccc1)c1ccccc1)NCc1ccon1 (stereo not given) | – | inactive: 3.47% |
| O=C(NC(=S)Nc1ccc2[nH]c(=O)[nH]c2c1)c1cccc(F)c1 | inconclusive: 50.1 µM [inhibitor, partial curve, poor fit] | – |
| CC(C)(C)NCc1ccc2c(c1)OCO2 | – | inactive: -20.2% |
| COc1cccc(-c2ccc(C#N)c(SCC(=O)Nc3ccc(C(C)=O)cc3)n2)c1 | inconclusive: 31.6 µM [inhibitor, partial curve, poor fit] | – |
| CC(C)(/C=N/O)/[N+]([O-])=C/c1ccco1 | inconclusive: 0.355 µM [inhibitor, full curve, poor fit] | – |
| COc1ccc(-c2csc(NC(=O)C3=COCCO3)n2)cc1OC | – | inactive: -4.68% |
| Cc1ccc(SC(=O)c2ccccc2)cc1 | – | inactive: 36.8% |
| COc1ccccc1[C@@H]1CN(C(=O)c2cc(C(C)C)[nH]n2)C[C@H]1C(=O)O | – | inactive: -17.9% |
| CCOC(=O)c1ccccc1NC(=O)C1COc2ccccc2O1 (stereo not given) | inconclusive: 31.6 µM [inhibitor, single point] | – |
| Cc1cccc(C(=O)Nc2nnc(S(=O)(=O)N3CCCc4ccccc43)s2)c1 | – | inactive: 3.58% |
| CCc1nc2c(c(-c3ccc(Cl)cc3)n1)CCN([S+](=O)([O-])c1ccccc1)CC2 | – | inactive: 40.6% |
| O=C(/C=C/c1ccc2c(c1)OCCCO2)c1ccccc1OCc1ccccc1 | – | inactive: 8.16% |
| Cn1c(=O)n(C)c2cc(NS(=O)(=O)c3ccc(C(C)(C)C)cc3)c(NCc3ccccc3)cc21 | inconclusive: 112 µM [inhibitor, partial curve, poor fit] | – |
| O=C(Cc1n[nH]c(=O)c2ccccc12)NCC1(N2CCCCC2)CCCCC1 | inconclusive: 126 µM [inhibitor, single point] | – |
| O=C(NCc1ccc(F)cc1)C(=O)NCC(c1ccco1)S(=O)(=O)c1cccs1 (stereo not given) | inconclusive: 112 µM [inhibitor, single point] | – |
| Cc1cnc(C(=O)N2CCC3(CC2)c2[nH]c4ccccc4c2CCN3C)cn1 | – | inactive: 26.8% |
| Cc1sc2ncnc(N3CCC(C(=O)Nc4ccc(Cl)cc4Cl)CC3)c2c1C | – | inactive: -10.8% |
| CCCCC(=O)NC(=S)Nc1cc([N+](=O)[O-])ccc1OC | inconclusive: 56.2 µM [inhibitor, single point] | – |
| O=C(c1ccc(Cl)cc1)N1CCC(n2cc(-c3ccncc3)[nH]c2=O)CC1 | – | inactive: 3.54% [at 6.33 µM] |
| COc1ccc(/C=C/C(=O)c2cc(F)ccc2OC(=O)c2ccc(OC)c(OC)c2)cc1OC | – | inactive: -14.6% |

| SMILES | Potency | activity change, negative = inhibition |
| --- | --- | --- |
| CCOc1ccc(C2C(=O)N(C3CCCCCC3)CC(=O)N2CCc2ccc(Cl)cc2)cc1OC (stereo not given) | – | inconclusive: -41.4% [inhibitor] |
| O=C(NC1CCCC1)c1cc(-c2ccccc2O)on1 | – | inactive: -17.1% |
| Cc1cccc(NC(=S)NC(=O)CCc2ccccc2)c1C | inconclusive: 39.8 µM [inhibitor, partial curve, poor fit] | – |
| Cc1ccc(-c2nnn(CC(=O)N(c3ccccc3F)C(C(=O)NC3CCCC3)c3ccco3)n2)o1 (stereo not given) | inconclusive: 112 µM [inhibitor, single point] | – |
| C=CCNc1nc(C(=O)OC(C)C(=O)c2ccc(C)cc2)cs1 (stereo not given) | inconclusive: 141 µM [inhibitor, single point] | – |
| CN(CC(=O)NC(C)(C)C)C(=O)c1cc2ccc(Br)cc2[nH]1 | – | inactive: -23% |
| Cc1ccc(-c2nc(Nc3ccccc3C)sc2C)cc1 | inconclusive: 112 µM [inhibitor, single point] | – |
| Cn1c(-c2ccc(F)cc2)cnc1NCc1ccc(C#N)cc1 | inconclusive: 0.0891 µM [inhibitor, full curve, poor fit] | – |
| Cc1ccc(S(=O)(=O)N2CCN(Cc3ccco3)CC2)c(C)c1 | inconclusive: 35.5 µM [inhibitor, partial curve, poor fit] | – |
| Cc1cccc2c1NC(=O)C2(O)c1c[nH]c2ccccc12 (stereo not given) | – | inactive: 20.9% |
| FC1(F)CN[C@H](c2nc(-c3cccnc3)no2)C1 | – | inactive: 45.4% |
| COc1ccc(C(=O)CSc2n[nH]c(C)n2)cc1[N+](=O)[O-] | inconclusive: 39.8 µM [inhibitor, partial curve, poor fit] | – |
| O=C(NCc1ccccc1)C(c1ccccc1F)n1c(=O)c(-c2ccco2)nc2ccccc21 (stereo not given) | inconclusive: 44.7 µM [inhibitor, partial curve, poor fit] | – |
| CCCN(CC1CC1)C(=S)Nc1ccc(Oc2ccccc2)cc1 | inconclusive: 50.1 µM [inhibitor, partial curve, poor fit] | – |
| COc1ccc(OCC(O)CNS(=O)(=O)c2ccc(C)cc2)cc1 (stereo not given) | inconclusive: 3.55 µM [inhibitor, full curve, poor fit] | – |
| N=c1oc2ccc(Cl)cc2cc1C(=O)NC1CCCCCC1 | inconclusive: 1.78 µM [inhibitor, partial curve, poor fit] | – |
| Cc1ccc(Nc2nc(-c3c(C)nc4ccccn34)cs2)cc1 | inconclusive: 25.1 µM [inhibitor, partial curve, poor fit] | – |
| CC(C)Cc1nnc(NC(=O)c2cccc(S(=O)(=O)N3CCOCC3)c2)s1 | inconclusive: 100 µM [inhibitor, single point] | – |
| COc1cc(CCCN2CCNC[C@@H]2c2ccccc2)cc(OC)c1OC | inconclusive: 112 µM [inhibitor, single point] | – |
| CCOC(=O)COn1c(=O)c(=O)n(OC)c2ccccc21 | – | inactive: -23.3% |
| COC(=O)[C@@H]1Cc2ncn(Cc3ccccc3)c2CN1S(=O)(=O)c1ccc(C)cc1 | – | inactive: 66.7% [at 176 µM] |
